## Primary screen of a compound library

By UniProt entry, the sequences of proteins in these tests, tags left out.
UniProt E9BF75, entry or part of it: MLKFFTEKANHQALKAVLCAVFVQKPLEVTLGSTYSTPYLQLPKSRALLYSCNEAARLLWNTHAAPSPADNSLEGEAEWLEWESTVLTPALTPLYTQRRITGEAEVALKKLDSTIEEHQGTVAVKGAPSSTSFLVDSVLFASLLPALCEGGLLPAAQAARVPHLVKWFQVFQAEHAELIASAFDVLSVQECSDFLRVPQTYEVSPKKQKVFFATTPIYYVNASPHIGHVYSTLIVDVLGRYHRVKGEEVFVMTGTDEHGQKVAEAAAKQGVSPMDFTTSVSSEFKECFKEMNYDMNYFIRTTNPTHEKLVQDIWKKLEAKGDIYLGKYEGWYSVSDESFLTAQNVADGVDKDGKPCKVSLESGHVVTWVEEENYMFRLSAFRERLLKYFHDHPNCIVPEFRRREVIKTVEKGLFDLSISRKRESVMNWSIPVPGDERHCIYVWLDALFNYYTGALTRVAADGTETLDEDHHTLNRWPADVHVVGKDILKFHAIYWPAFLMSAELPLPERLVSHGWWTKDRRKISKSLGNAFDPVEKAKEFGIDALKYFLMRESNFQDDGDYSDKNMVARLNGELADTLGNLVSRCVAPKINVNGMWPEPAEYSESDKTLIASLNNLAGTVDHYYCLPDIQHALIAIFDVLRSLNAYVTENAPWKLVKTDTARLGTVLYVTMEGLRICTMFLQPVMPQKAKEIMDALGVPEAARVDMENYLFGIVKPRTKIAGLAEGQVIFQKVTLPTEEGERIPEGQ

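Primary screen of methionyl-tRNA synthetase; the read-out is not stated. Target: Methionyl-tRNA synthetase (putative), Leishmania donovani (UniProt E9BF75). The test concentration is not given. Values are per cent inhibition. About 68,000 compounds were tested under these conditions; 0.035% (about 24) showed 50% or more at least once.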

Results are percentages, as filed. How 0% and 100% were set is not recorded. Most values in the screen are low, and negative values occur. This is an unselected part of the compounds tested.

Result for CCN(CC)CCCNCc1cc2cccc(C)c2[nH]c1=O was 12.77%.
Result for CC(C)N1CCc2c(c(COc3cccnc3)nn2CC2CC2)C1 was 3.114%.
Result for O=S(=O)(CCNCc1cccc2c1OCCO2)N1CCOCC1 was 6.159%.
Result for COc1ccc(CN2CCC3(CC2)CCN(CC(=O)N(C)C)C3=O)cc1 was 13.45%.
Result for O=C1CO[C@@H]2CN(Cc3cccnc3)C[C@H]2N1Cc1ccncc1 was 3.922%.
Result for CCS(=O)(=O)c1ccc2oc([C@H]3CCN(CC4CCCCC4)C3)nc2c1 was 7.519%.
Result for O=C(CCn1ccc2ccccc21)N1CCN(Cc2cccnc2)CC1 was 7.292%.
Result for COc1ccccc1CN(C)C(=O)NCc1c(C)cc(C)[nH]c1=O was 26.86%.
Result for Cc1n[nH]c(C)c1NC(=O)CN1CCc2c(nc(C3CC3)n2C)C1 was -0.4049%.
Result for CN(C)C[C@H]1CC[C@@H](Cc2ccc3c(cnn3C)c2)O1 was 1.393%.
Result for CCCNC(c1cccnc1)c1ccc(F)c(C)c1 (stereo not drawn) was 8.58%.
Result for Cc1nc(CN2CC(CO)Oc3ccccc32)sc1C (stereo not drawn) was 8.696%.
Result for N#Cc1ccc(Cl)cc1NCC1CC1 was 19.05%.
Result for CN(CC(O)CO)C(=O)c1coc(COc2cccc(F)c2)n1 (stereo not drawn) was 6.529%.
Result for Cc1cc(C(F)(F)F)nc(CCNc2nc(C)nc3c2cnn3C)n1 was 10.23%.
Result for CCC(c1ccccc1)S(=O)(=O)CCO (stereo not drawn) was 8.192%.
Result for CCOc1ncccc1CN1Cc2ncccc2C1=O was 10.51%.
Result for CC(C)NC1CCCc2nc(-c3ccccc3)ncc21 (stereo not drawn) was 7.581%.
Result for CC(=O)N1CCCCCC1C1CCN(c2ncccc2C#N)CC1 (stereo not drawn) was 15.85%.
Result for COc1ccnc(NCC2CN(C3CC3)CCO2)n1 (stereo not drawn) was 1.781%.
Result for CC(C)c1ccc(C(CN)N2CCc3sccc3C2)cc1 (stereo not drawn) was -6.402%.
Result for O=C(c1cncs1)N1CCOCC(Cc2ccncn2)C1 (stereo not drawn) was 11.21%.
Result for COc1cc(C2CC(=O)Oc3cc(C)[nH]c(=O)c32)ccc1O (stereo not drawn) was 14.08%.
Result for CCOc1ccccc1OC1CCN(C(=O)c2cc[nH]n2)CC1 was 8.163%.
Result for O=C(c1ccccn1)N1CCOC2(COCCN(Cc3cc[nH]n3)C2)C1 (stereo not drawn) was 10.8%.
Result for COCC(=O)N1CCC(C(=O)c2cc(C)cnc2N)CC1 was 8.414%.
Result for COc1ccc2nc(C[C@@H]3C[C@@H](C(C)C)[C@H](CN(C)C)C=C3C)[nH]c2n1 was 20.88%.
Result for COCCN1CCN(c2nc(C3CCCC3)nc3c2cnn3C)CC1 was 4.839%.
Result for Cc1cccc(C(=O)N2C[C@@H]3CCN(c4cccnc4)C[C@@H]3C2)c1 was 2.439%.
Result for N#Cc1nccnc1N1CCC(Cc2ccccc2)C1 (stereo not drawn) was 9.964%.
Result for O=C(NCC1CCOC1)N1CCN(c2ncccn2)CC1 (stereo not drawn) was 6.923%.
Result for CCOc1cc(C(=O)N2CCCC(c3noc(C)n3)C2)ccc1OC (stereo not drawn) was 13.13%.
Result for CNC(=O)NC(=O)CN(Cc1ccc(C#N)cc1)Cc1cccc(F)c1 was 11.45%.
Result for Cn1cccc1C(=O)NC[C@H]1C[C@@H]2CN(C(=O)c3ccco3)C[C@@H]2O1 was 5.714%.
Result for Cc1cc(C[C@@H]2COC[C@H]2NCc2ccc(Br)s2)on1 was 3.767%.
Result for CC(C)NC(=O)N1CCN(S(C)(=O)=O)CC2(CNC(=O)C2)C1 (stereo not drawn) was 12.39%.

Some entries from above, unchanged:

{"smiles": "COc1ccnc(NCC2CN(C3CC3)CCO2)n1", "stereo": "stereo not drawn", "Inhibition": 1.781}
{"smiles": "Cc1cccc(C(=O)N2C[C@@H]3CCN(c4cccnc4)C[C@@H]3C2)c1", "Inhibition": 2.439}
{"smiles": "CC(C)NC1CCCc2nc(-c3ccccc3)ncc21", "stereo": "stereo not drawn", "Inhibition": 7.581}
{"smiles": "CN(C)C[C@H]1CC[C@@H](Cc2ccc3c(cnn3C)c2)O1", "Inhibition": 1.393}

From ChEMBL document CHEMBL3988442, “University of Dundee, Small-Polar-MMV Screening Library” (2021).